Measurements taken from PMC8825819, “Structure of Escherichia coli O157:H7 bacteriophage CBA120 tailspike protein 4 baseplate anchor and tailspike assembly domains (TSP4-N)” (Scientific Reports, 2022).
Results are given in words; binding and its absence hold for the method and conditions named.

Biological target: TSP4 devoid of the AD-XD1 domains, residues 185-1036 (bacteriophage CBA120)
Experiment: AUC; sedimentation velocity of single proteins and of mixtures, PBS pH 7.4, 20 °C, absorbance at 280 nm, 30-50 krpm; c(s) by SEDFIT; Kd and koff by Lamm equation modelling with a two-site heterogeneous association model A + B + B = AB + B = ABB (A: TSP4-N335 hexamer, B: partner TSP trimer; two symmetric sites, no cooperativity); both purified

B1: Tailspike protein 2 of bacteriophage CBA120 (natural protein, UniProt G3M190 1-921, looked up)
chain: MTRNVEELFGGVITAPHQIPFTYKSNVGGETFLSLPFYPVTGVVTINGGMQVPLDNFEIEGNTLNLGRALSKGDVVYCLFDKILSPEDTAKGIRIYKFQAVGGETEFTPDFTSYGVQSLYIGGEYKTPEIEYSYDSTTGKVSLQTALSAGVWVVAEMSVKQPNISPAFDRSIQEIARSANVKDSEVIVSTDTISLLDGKKVVYDIATQTSYGLPTIPDGSVISSVSAGKLNYNPGDVQVDLLPLEDSFINVINTLGRNDGAKYIGECHSVADLRNTEPTMDGQRIILKQHTAGTLLGGGVFRALIDGTGKTDNNGTVIKTVGGAAWLRVNADRVNPFMFGALGGSNDDTIPVQSCVDSGKATQLTDAHYVSNIQLKYNTSSIYGSGLHYSRLHQLPSATGNCITIKDTCSLIVLDAFGVYGTGAQQGTSFTAGTTGIYVETPSGLSADYPFHTTADPRRDLCISKVHIAGFDEYGLNIDSGNFSVTTDSLLVNHINQVGVRCATTDWTWTNIQVNTCGKQCLVLDGCGNGRIIGGKFIWANWQPYGTVGQFPGITINNSQNMVINGIEVQDCGGNGIEISESYSISMNGLNTNRNGINANNTFYNIVFNKSDAVINGFVGLNYAANSGSGANSSAGNFQFLSNDCSVTINGVVETGYMGINFIGDNNIINPTNSDLSINGLVNYSKTGLQTMNETPTFDGVSTTPVYVSVPSSVGQVNGLRLSQANKDKLLYSRTAGPEGITMAAVIVPTISGAEVFNFMAIGSGFSDTSNSLHLQLVIDASGKQTIALLLGGDGTTQILSGDLPNDLKLQSGVPYHIAIGAKPGYFWWSILNIQTGKRIRRSFRGAYLAVPFNSIFGLTSSLTFFSDSNAGGDACSGVGAKVYVGMFSSENDYVASRYYNLINPVDPTKLISYRILDSSI
notes: Homotrimer by SV (MWcalc of the trimer 297 kDa); also called TSP2
For B1, the binding was “no binding”.
